Assay results from US10398315B2, “Method of imaging living tissue” (Agency for Science, Technology and Research, priority 2013, dated 2019).
For some assays here: For at least one compound, name, drawing or mass did not settle the structure. Some entries share one result that the patent states for a list of compounds.

Key:
[1] = test system: oral squamous carcinoma cells (OSCC); assay: Dark toxicity, Cell Counting Kit-8 cell viability; details: 24 hours in dark, concentrations up to 100 μM
[2] = literature value; cited from earlier work
[3] = literature value; cited from earlier work; remark: listed apart in the source
[4] = MSOT phantom measurement of photoacoustic signal; format: physicochemical; details: gradient of unmixed PA signal vs concentration in phantom, 680-900 nm; arbitrary ratios
Method: In order to verify the PA activity of the photosensitizers under controlled conditions, phantom measurements for all the contrast agents were performed, in the 680-900 nm wavelength range, each at 5 different concentrations.
All phantom and in vivo mouse imaging experiments were performed using a real-time multispectral optacoustic tomographic (MSOT) imaging system; inVision 128 (iThera Medical GmbH, Neuherberg, Germany).
The phantom was made of polyurethane, cylindrical in shape with a diameter of 2 cm, which was specially designed to mimic the shape, size and optical properties of the mouse (iThera Medical GmbH, Neuherberg, Germany). In addition, it had 2 inner cylindrical channels, each with diameter of 3 mm, one for holding the control medium and the other for holding the dissolved contrast agent in the same medium, to measure PA signal compared to the control medium, as shown in FIG. 2A. […]
During image acquisition, the sample is translated through the transducer array along its axis across the volume ROI, in order to capture the corresponding transverse image slices. Data from multiple transverse slices across the channel portion which contains the probe and control were recorded. Excitation wavelength scan from 680 to 900 nm with an interval of 10 nm for each transverse slice was applied, and the averaged PA signals from 10 frames for each wavelength and position were recorded. […]

Compound | cell viability (dark toxicity) [1] | Singlet Oxygen Quantum Yield (ϕΔ) [2] | Fluorescence Quantum Yield (ϕF) [3] | Relative PA Quantum yield (ϕP) [4]
CN(C)c1ccc2nc3ccc(=[N+](C)C)cc-3sc2c1 [MB, methylene blue] | more than 50% |  |  | 
C=CC1=C(C)c2cc3[nH]c(cc4nc(cc5[nH]c(cc1n2)c(C)c5CCC(=O)O)C(CCC(=O)O)=C4C)c(C)c3C=C [PpIX, protoporphyrin IX] | more than 50% | 0.56 [23] | 0.16 [23] | 0.093
